Test results reported in publication PMC12607897, “Inhibition of HIV-1 replication by primer RNA packaging inhibitors” (mBio, 2025).

Sequences of proteins named here, by UniProt entry; tags and fusion partners are left off. A line that says so, or that is headed by a name, gives the form on record, which may keep a tag or linker.
UniProt Q15046, other isoform, or with tags, fused parts or gaps: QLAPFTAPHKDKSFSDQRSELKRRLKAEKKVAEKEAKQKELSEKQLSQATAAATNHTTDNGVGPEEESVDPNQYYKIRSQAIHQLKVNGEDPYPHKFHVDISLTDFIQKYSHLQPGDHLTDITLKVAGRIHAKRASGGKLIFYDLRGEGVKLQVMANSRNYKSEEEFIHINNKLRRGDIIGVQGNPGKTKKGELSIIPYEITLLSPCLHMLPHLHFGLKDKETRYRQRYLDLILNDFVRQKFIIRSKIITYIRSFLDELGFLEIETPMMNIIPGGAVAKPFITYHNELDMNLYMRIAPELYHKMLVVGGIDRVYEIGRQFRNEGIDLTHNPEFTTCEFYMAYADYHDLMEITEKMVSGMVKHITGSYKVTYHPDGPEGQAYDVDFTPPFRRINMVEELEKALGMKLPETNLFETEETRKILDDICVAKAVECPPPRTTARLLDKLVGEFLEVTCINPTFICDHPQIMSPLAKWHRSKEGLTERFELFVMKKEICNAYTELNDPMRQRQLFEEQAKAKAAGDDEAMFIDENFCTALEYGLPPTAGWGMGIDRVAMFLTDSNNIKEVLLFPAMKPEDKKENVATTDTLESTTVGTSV

Target: T1, mLysRS:IN interaction (human mLysRS, HIV-1 IN) (UniProt P12497+Q15046)
T1 construct: made in house
Assay: HTRF assay of mLysRS:IN interaction
Assay type: binding, human / HIV-1
Settings: dihydropyridine derivatives, Fig. S2
Protocol: Fig 1 Determination of the half-maximal inhibitory concentration (IC50) of the drugs in the mLysRS:IN binding assay. The binding of mLysRS to IN (red) or p38 (blue) was monitored in the HTRF assay in the presence of increasing drug concentrations (9–1,000 µM). The experimental values (symbols) were fitted (curves) to the equation Y = Ymin + {(Ymax − Ymin)/[1 + (X/IC50)^n]}, where n is the Hill coefficient. […] Proteins were isolated as described previously ([4]). Several batches of IN were used throughout this study. […] The molecules are dissolved in DMSO at a final concentration of 10 mM. After a 1 h incubation on ice, antibodies (Cisbio) directed to the His-tag and conjugated with Eu^3+ cryptate (Cisbio #61HISKLB) and the HA-tag conjugated with XL665 (Cisbio #610HAXLB) were added, and incubation was continued for 30 min. After the addition of 50 mM KF, fluorescence of Eu^3+ cryptate and of XL665 was recorded at 620 nm (I620) and 665 nm (I665), respectively, following excitation of Eu^3+ cryptate at 317 nm, in an Infinite M1000 PRO microplate reader (TECAN). The results were expressed as the ratio of I665/I620.

## COC(=O)C1=C(C)NC(C)=C(C(=O)OC)C1c1ccccc1[N+](=O)[O-] [nifedipine]
  effect on the mLysRS:IN interaction in the HTRF assay: did not significantly alter
